Results as given in patent publication US20260325561A1, “4'-SUBSTITUTED NUCLEOSIDES AND NUCLEOTIDES AS ANTIVIRAL AGENTS” (THE SCRIPPS RESEARCH INSTITUTE, priority 2023, published 2026).
At least one compound was matched to its structure with a doubt left.

How the values were obtained:
DENV-2 = assay type: cell-based, DENV-2 16681; conditions: DENV-2, FIG. 2
HRV 16 = assay type: cell-based, Human Rhinovirus 16 strain 11757; conditions: HRV-16, FIG. 2
HRV 14 = assay type: cell-based, Human Rhinovirus 14 strain 1059; conditions: HRV-14, FIG. 2

CNc1nc(N)nc2c1ncn2[C@@H]1O[C@](F)(COP(=O)(N[C@@H](C)C(=O)OC(C)C)Oc2ccccc2)[C@@H](O)[C@]1(F)Cl (single isomer, unassigned) [Example 58]
more efficacious than AL-611: efficacy vs AL-611, DENV-2 (DENV-2) | efficacy vs AL-611, HRV-16 (HRV 16) | efficacy vs AL-611, HRV-14 (HRV 14)
